# Primary screen of a compound library

Mtb cholesterol medium: 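Whole-cell growth test on Mycobacterium tuberculosis, read after 4 days in a medium based on cholesterol and the lipid DPPC; the read-out is not stated. Tested at 50 µM. Higher reads as more growth inhibition (inferred: compounds with an IC50 in retests scored well above the rest). Size under these conditions: about 69,000 compounds, about 370 of them at 50% or above in at least one test.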
Mtb glucose medium: 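Phenotypic screen: M. tuberculosis growth, glucose 7H9 medium, 3 days; the read-out is not stated. Concentration: 50 µM. Higher reads as more growth inhibition (inferred: compounds with an IC50 in retests scored well above the rest). About 69,000 compounds were tested under these conditions; 1.1% (about 760) showed 50% or more at least once.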

Values are the deposited “Percent Effect”, in %. The record does not define 0% and 100%; most values in the screen are far below 50% and negative numbers occur (in some assays of this library far below -100). This is an unselected part of the compounds tested. Two or more numbers in one place are separate tests of the same structure; such repeats can differ widely.

- Cc1noc(C)c1-c1nc(N(C)C)ncc1-c1cnccn1 : Mtb cholesterol medium: 14.76%; Mtb glucose medium: 0.4606%
- COc1cc(CCO)c(OC)c2c1OCO2 : Mtb cholesterol medium: -9.864% & -1.948%; Mtb glucose medium: -31.83%
- Cc1nc(CN2CCCn3nc(CNC(=O)C4CCC4)cc3C2)co1 : Mtb cholesterol medium: -8.338% & -6.174%; Mtb glucose medium: 7.001%
- Cc1nn(-c2ccccc2)c2nc(C(C)(C)CN3CCN(C)CC3)[nH]c12 : Mtb cholesterol medium: 18.12%; Mtb glucose medium: 20.3%
- CC(=O)N1CCC2(CCN(Cc3ccccn3)C2=O)C1.O=C(O)C(F)(F)F (stereo not shown) : Mtb cholesterol medium: -12.85%; Mtb glucose medium: -9.407%
- CN1C[C@H](O)[C@]2(CCN(Cc3ccc(OC(F)(F)F)cc3)C2)S1(=O)=O : Mtb cholesterol medium: 10.48%; Mtb glucose medium: 20.49%
- Cc1ccc(=O)n(Cc2nc(C(C)OCC(C)C)no2)n1 (stereo not shown) : Mtb cholesterol medium: 0.1089%; Mtb glucose medium: 2.899% & 22.71%
- Cc1noc(C(C)N2CCN(CCCN3CCCC3=O)CC2)n1 (stereo not shown) : Mtb cholesterol medium: -9.054%; Mtb glucose medium: -7.707%
- Cc1cnc(CN(C)C2CCN(CCc3cnn(C)c3)C2)o1 (stereo not shown) : Mtb cholesterol medium: -9.337%; Mtb glucose medium: -22.75%
- CCc1nc(C2CCCN2C(=O)CCCn2cncn2)no1 (stereo not shown) : Mtb cholesterol medium: -7.969%; Mtb glucose medium: 6.578%
- Nc1nccnc1C(=O)NC1CCN(Cc2ccccc2)C1 (stereo not shown) : Mtb cholesterol medium: -8.205%; Mtb glucose medium: -4.853%
- O=C(COc1ccccc1Cl)N1CCCC(n2ccnc2)C1 (stereo not shown) : Mtb cholesterol medium: -15.06%; Mtb glucose medium: -5.533%
- COc1ncc(-c2c(C#N)c(N)nc3c2CCc2[nH]ccc2-3)cn1 : Mtb cholesterol medium: -37.37% & -38.78%; Mtb glucose medium: -59.12% & -17.13%
- Cc1cc(C(=O)NCC2CCCC2)c(C)n1-c1cccnc1 : Mtb cholesterol medium: -1.95%; Mtb glucose medium: 13.83%
- Cc1cccnc1CNc1cc(N2CCCC2CO)ncn1 (stereo not shown) : Mtb cholesterol medium: 20.48%; Mtb glucose medium: 25.61%
- CCS(=O)(=O)N1CCN(C(=O)NC(C)C)CC2(CC(=O)N(C)C2)C1 (stereo not shown) : Mtb cholesterol medium: 7.344%; Mtb glucose medium: 24.1%
- O=C(Cc1ccccc1Br)NCC(=O)Nc1cn[nH]c1 : Mtb cholesterol medium: -19.55%; Mtb glucose medium: -4.464% & -24.45%
- Nc1nc2c(c(NC3CCCC3)n1)CCN(C(=O)C1CCOC1)CC2 (stereo not shown) : Mtb cholesterol medium: -17.37%; Mtb glucose medium: 1.764% & 7.639%
- Cc1cc(C)cc(CN2CCC3(CC2)CC(Nc2ncccn2)CO3)c1.O=C(O)C(F)(F)F (stereo not shown) : Mtb cholesterol medium: 6.867%; Mtb glucose medium: 4.197%
- CN1CC(=O)N(c2cccc(F)c2)CC12CCN(Cc1ccco1)C2 (stereo not shown) : Mtb cholesterol medium: -2.717% & 7.85%; Mtb glucose medium: 2.493% & -6.634%
- CC[C@H]1CN(C(=O)c2cccnc2)CC[C@H]1CC(=O)NCCOC : Mtb cholesterol medium: -3.853%; Mtb glucose medium: -33.46% & 0.5195%
- CNC(=O)CN1CCCC12CCN(C(=O)c1cccc(F)c1)CC2.O=C(O)C(F)(F)F : Mtb cholesterol medium: 13.15%; Mtb glucose medium: -32.02%
- COc1ccc(C(C(=O)O)N(C)CCN2CCOCC2)c(C)c1 (stereo not shown) : Mtb cholesterol medium: -5.366% & -2.022%; Mtb glucose medium: -6.746%
- Cc1ccccc1C(=O)N1CCN(c2ccc(-n3cncn3)nn2)CC1 : Mtb cholesterol medium: 14.58%; Mtb glucose medium: -1.751% & 7.062%
- Cc1nn(-c2ccccc2)cc1C(=O)N1CCCC1c1cnn(C)c1 (stereo not shown) : Mtb cholesterol medium: 6.979%; Mtb glucose medium: 17.16% & -6.042%
- CCc1ccsc1C(=O)N1CCCN(Cc2nccn2CC)CC1 : Mtb cholesterol medium: -0.4094%; Mtb glucose medium: 9.092%
- CCOC(=O)N1CCN(C(=O)C(C)n2ccnc2C(C)C)CC1 (stereo not shown) : Mtb cholesterol medium: 2.844%; Mtb glucose medium: -3.039% & 1.944%

3 of the entries, repeated:

| Compound | Mtb cholesterol medium | Mtb glucose medium |
|---|---|---|
| `CCc1nc(C2CCCN2C(=O)CCCn2cncn2)no1` (stereo not shown) | -7.969% | 6.578% |
| `Cc1noc(C)c1-c1nc(N(C)C)ncc1-c1cnccn1` | 14.76% | 0.4606% |
| `CNC(=O)CN1CCCC12CCN(C(=O)c1cccc(F)c1)CC2.O=C(O)C(F)(F)F` | 13.15% | -32.02% |

Data taken from ChEMBL document CHEMBL3988442, “University of Dundee, Small-Polar-MMV Screening Library” (2021).